Laboratory results reported in paper PMC10267427.
No constants are given. Whether binding was seen depends on the method and setting. Binding seen in cells or lysates may run through a third protein. Some entries that bind do so weakly or less than the wild type.

Chains of the proteins cited; added tags and fusions are not shown.
UniProt P31749: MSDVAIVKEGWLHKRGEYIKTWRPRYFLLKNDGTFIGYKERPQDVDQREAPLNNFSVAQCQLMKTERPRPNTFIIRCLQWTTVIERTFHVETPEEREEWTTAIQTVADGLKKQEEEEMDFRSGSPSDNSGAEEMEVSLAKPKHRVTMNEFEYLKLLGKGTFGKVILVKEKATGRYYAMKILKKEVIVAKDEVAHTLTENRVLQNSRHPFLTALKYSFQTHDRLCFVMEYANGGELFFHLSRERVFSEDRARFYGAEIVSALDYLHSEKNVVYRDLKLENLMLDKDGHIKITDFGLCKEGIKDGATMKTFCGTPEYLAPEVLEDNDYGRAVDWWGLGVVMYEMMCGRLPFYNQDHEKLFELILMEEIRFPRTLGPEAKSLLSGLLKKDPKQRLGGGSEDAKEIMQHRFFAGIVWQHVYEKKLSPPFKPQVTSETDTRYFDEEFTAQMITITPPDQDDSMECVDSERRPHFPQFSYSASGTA

Biological target: phosphorylated Akt (p-Akt) (human (endogenous in HBF)) (UniProt P31749)
Assay: co-IP; lysates of HBFs infected with HSALR1-overexpression or control lentivirus; magnetic beads with anti-p-AKT antibody (IgG as control), overnight at 4°C; Western blot of the eluate

B1: CDC37 (protein, UniProt Q16543 1-378)
chain: MVDYSVWDHIEVSDDEDETHPNIDTASLFRWRHQARVERMEQFQKEKEELDRGCRECKRKVAECQRKLKELEVAEGGKAELERLQAEAQQLRKEERSWEQKLEEMRKKEKSMPWNVDTLSKDGFSKSMVNTKPEKTEEDSEEVREQKHKTFVEKYEKQIKHFGMLRRWDDSQKYLSDNVHLVCEETANYLVIWCIDLEVEEKCALMEQVAHQTIVMQFILELAKSLKVDPRACFRQFFTKIKTADRQYMEGFNDELEAFKERVRGRAKLRIEKAMKEYEEEERKKRLGPGGLDPVEVYESLPEELQKCFDVKDVQMLQDAISKMDPTDAKYHMQRCIDSGLWVPNSKASEAKEGEEAGPGDPLLEAVPKTGDEKDVSV
binding: binds
